The values that follow come from paper PMC12815688.

Protein sequences, listed by entry. Tags and fused reporters are not part of them.
UniProt P17918: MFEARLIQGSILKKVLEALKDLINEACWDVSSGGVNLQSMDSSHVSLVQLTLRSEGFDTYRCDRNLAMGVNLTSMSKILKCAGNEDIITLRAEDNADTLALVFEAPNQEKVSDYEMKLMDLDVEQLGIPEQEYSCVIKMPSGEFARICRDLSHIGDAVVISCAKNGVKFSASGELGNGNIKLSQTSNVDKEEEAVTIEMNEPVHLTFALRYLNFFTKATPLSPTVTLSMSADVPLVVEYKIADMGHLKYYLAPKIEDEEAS
UniProt Q5PSV9: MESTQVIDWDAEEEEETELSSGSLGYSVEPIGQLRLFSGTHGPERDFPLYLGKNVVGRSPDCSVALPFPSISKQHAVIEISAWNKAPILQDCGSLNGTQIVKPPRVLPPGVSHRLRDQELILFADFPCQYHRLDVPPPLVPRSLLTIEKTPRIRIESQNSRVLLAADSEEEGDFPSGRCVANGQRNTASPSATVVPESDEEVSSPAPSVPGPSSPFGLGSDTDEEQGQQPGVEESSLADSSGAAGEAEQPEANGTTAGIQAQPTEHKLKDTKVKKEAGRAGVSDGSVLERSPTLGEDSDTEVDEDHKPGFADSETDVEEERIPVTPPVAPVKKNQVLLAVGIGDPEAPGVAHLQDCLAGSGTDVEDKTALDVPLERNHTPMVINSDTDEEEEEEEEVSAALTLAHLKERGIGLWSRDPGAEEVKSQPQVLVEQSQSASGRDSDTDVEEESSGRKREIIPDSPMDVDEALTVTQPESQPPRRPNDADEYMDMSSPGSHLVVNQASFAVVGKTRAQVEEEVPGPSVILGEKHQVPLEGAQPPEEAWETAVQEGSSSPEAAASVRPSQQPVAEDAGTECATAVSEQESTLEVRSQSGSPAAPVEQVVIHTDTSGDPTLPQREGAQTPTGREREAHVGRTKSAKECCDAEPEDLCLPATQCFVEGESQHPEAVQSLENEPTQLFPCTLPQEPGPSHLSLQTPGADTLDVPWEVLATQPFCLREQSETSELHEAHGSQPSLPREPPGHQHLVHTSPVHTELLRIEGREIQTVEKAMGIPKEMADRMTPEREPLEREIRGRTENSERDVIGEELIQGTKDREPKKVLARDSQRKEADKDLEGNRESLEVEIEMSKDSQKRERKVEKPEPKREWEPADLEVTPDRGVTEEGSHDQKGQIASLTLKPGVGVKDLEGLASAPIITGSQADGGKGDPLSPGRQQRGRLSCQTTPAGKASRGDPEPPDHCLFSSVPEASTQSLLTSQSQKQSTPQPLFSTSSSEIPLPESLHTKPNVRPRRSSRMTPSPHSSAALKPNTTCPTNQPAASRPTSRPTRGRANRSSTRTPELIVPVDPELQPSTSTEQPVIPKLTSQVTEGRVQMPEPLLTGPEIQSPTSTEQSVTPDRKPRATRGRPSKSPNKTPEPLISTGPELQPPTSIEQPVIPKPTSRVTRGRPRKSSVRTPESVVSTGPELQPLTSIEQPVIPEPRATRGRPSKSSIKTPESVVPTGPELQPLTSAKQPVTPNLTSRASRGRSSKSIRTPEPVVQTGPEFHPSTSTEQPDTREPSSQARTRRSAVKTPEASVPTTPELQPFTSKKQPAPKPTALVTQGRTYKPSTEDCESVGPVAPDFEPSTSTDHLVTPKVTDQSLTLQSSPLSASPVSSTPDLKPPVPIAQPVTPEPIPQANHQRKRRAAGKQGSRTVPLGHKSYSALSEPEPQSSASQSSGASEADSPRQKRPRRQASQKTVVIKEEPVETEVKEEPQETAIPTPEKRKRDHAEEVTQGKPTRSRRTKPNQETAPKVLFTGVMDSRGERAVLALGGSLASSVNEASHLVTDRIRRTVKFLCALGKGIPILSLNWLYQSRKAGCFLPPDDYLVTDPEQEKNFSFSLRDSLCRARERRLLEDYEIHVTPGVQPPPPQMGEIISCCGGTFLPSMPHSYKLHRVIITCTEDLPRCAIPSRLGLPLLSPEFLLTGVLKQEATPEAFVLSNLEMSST

The experiment concerns the target PCNA (mouse (endogenous in KB2P1.21)) (UniProt P17918). Nature of the experiment: proximity ligation; KB2P1.21 cells labelled with 10 uM EdU for 30 min, pre-extracted with CSK buffer, fixed with PFA; anti-MDC1 and anti-PCNA primary antibodies, Duolink kit; PLA foci counted in EdU-positive nuclei; MDC1-proficient against MDC1-deficient cells.

No constants are given. Whether binding was seen depends on the method and setting. In cells and extracts the contact can be indirect. Some binding calls cover weakened binding; strength is not graded here.

On to MDC1 (from UniProt Q5PSV9 1-1707), for which the binding entry is “binds”.
